Here are results for 4 molecules from paper PMC7911045.

Amino acid sequences for entries named in this document (tags omitted). Residues count along the entry.
UniProt P22301, residues 19-178: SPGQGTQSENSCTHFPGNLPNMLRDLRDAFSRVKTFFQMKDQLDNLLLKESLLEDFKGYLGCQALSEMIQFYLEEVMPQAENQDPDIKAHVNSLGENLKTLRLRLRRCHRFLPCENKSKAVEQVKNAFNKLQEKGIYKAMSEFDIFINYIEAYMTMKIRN
UniProt Q9NWS0, residues 51-174: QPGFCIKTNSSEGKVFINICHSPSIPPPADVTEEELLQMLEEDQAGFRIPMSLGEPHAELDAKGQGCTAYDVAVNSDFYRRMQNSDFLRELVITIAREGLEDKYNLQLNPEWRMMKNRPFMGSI
UniProt P0DM59: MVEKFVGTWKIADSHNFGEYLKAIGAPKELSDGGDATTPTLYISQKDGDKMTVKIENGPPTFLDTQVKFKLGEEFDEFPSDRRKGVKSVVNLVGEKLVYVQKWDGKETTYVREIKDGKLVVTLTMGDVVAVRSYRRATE

One assay deals with interleukin-10 (human) (UniProt P22301). Put plainly: MST; IL-10 labelled on its C-terminal His-tag (RED-tris-NTA), titrated by ProBi variants; 50 mM Tris pH 8.0, 300 mM NaCl, 0.1% Pluronic F-127; 10 min at room temperature; Monolith NT.115, medium MST power, 60% LED; both purified.
In assay [1] the target is 4PSF wild type protein (PIH1D1 N-terminal domain) with N-terminal His-tag (human) (UniProt Q9NWS0). Put plainly: dynamic light scattering; purified scaffold candidates with N-terminal His-tags after size exclusion chromatography; ZetaSizer Nano ZS90; intensity-based particle size distribution; both purified.
For assay [2], the target named is Fluorescent protein UnaG wild type with N-terminal His-tag (Anguilla japonica) (UniProt P0DM59). Described as above.
The target of assay [3] is Alpha-X beta2 integrin I domain with N-terminal His-tag (human) (UniProt P20702). Described as above.

No constants are given. Whether binding was seen depends on the method and setting. For some of these results: Sequences can lack the tags named with a protein.

With “ProBi-WT protein scaffold (from UniProt Q9NWS0 51-174) (domain or fragment)”, the binding entry with interleukin-10 (human) is listed as “no binding”.

For “4PSF wild type protein (PIH1D1 N-terminal domain) with N-terminal His-tag (from UniProt Q9NWS0 51-174) (domain or fragment)”, the binding entry in assay [1] was “no binding”.

On to “Fluorescent protein UnaG wild type with N-terminal His-tag (from UniProt P0DM59 1-139)”, for which, in assay [2], the binding result is “no binding”.

B1: Alpha-X beta2 integrin I domain with N-terminal His-tag (domain or fragment, UniProt P20702 147-338)
chain: RQEQDIVFLIDGSGSISSRNFATMMNFVRAVISQFQRPSTQFSLMQFSNKFQTHFTFEEFRRSSNPLSLLASVHQLQGFTYTATAIQNVVHRLFHASYGARRDAAKILIVITDGKKEGDSLDYKDVIPMADAAGIIRYAIGVGLAFQNRNSWKELNDIASKPSQEHIFKVEDFDALKDIQNQLKEKIFAIEG
B1: the binding result in assay [3] is recorded as “no binding”.
